Assay results published in PubChem BioAssay AID1745846 (National Center for Advancing Translational Sciences (NCATS), 2022).
The whole screen tested about 1,400 compounds, of which about 30 (2%) were called active. About 15% were inconclusive and are not listed. Calls follow the shape of the dose curve; as a rule, active = well fitted inhibition curve with a large enough effect; inconclusive = small, poorly fitted or top-dose-only effect; inactive = flat fitted curve, though single readings scatter. The list shows a part of the results.

assay: Firefly Luciferase Counterscreen for Inhibitors of ATXN expression; conditions: luminescence; series mostly up to 57.5 µM; activity change, negative = inhibition: at the top concentration
Procedure, shortened: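 Recombinant firefly luciferase at 10 nM final in 50 mM Tris pH 7.5, 10 mM MgCl2, 0.05% BSA, 0.01% Tween20 with substrate; compounds up to 57 uM final, 10 min room temperature, end-point luminescence. Buffer-only wells define 100% inhibition.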
% is scaled to controls: 0 for no effect and ±100 for the full control effect.

SMILES	activity change, negative = inhibition
O[C@@H]1[C@@H](O)C=C2CCN3Cc4cc5c(cc4[C@H]1C23)OCO5 (stereo partly drawn)	inactive: 2.3%
Cn1nnnc1Sc1ncnc2scc(-c3cccs3)c12	inactive: -10.6%
COCc1ccc(CN2CCC(C(=O)Nc3cccc(-c4cccc(Cl)c4)c3)CC2)o1	inactive: -9.74%
Cc1ccccc1NC(=O)CSc1n[nH]c(-c2ccccn2)n1	inactive: -6.35%
O=C(CCCN1C(=O)/C(=C/c2ccccc2Cl)SC1=S)NNC(=O)c1ccc(Cl)cc1	inactive: -3.94%
CC(=O)N1c2ccc(S(=O)(=O)N3CCC(C(=O)Nc4cccc(C(F)(F)F)c4)CC3)cc2CC1C (stereo not drawn)	inactive: 0.917%
CCc1ccc(CNC(=O)C2CCN(c3nnc(C)c4c(C)n(-c5ccc(C)cc5)nc34)CC2)cc1	inactive: -2.21%
CCOc1ccc2[nH]c3c(NCCc4ccc(OC)c(OC)c4)ncnc3c2c1	inactive: -10.5%
COC(=O)c1cn(NC(=O)c2cc([N+](=O)[O-])ccc2F)c(=O)c2ccccc12	inactive: -8.85%
Cc1ccc(O)c(CNCCNCc2cc(C)ccc2O)c1	inactive: 1.05%
CCC(C)n1cnc2c(c1=O)c1nc3ccccc3nc1n2-c1ccc2c(c1)OCCO2 (stereo not drawn)	inactive: 0.0963%
COc1ccc(-c2n[nH]c(C)c2-c2cnn(-c3ccccc3)c2)c(O)c1C	inactive: -6.79%
CCCCOc1ccc(C(=O)NNC(=O)c2cnccn2)cc1OC	inactive: -3.21%
COc1ccc(-c2n(CC(=O)OC3CC(C)CCC3C(C)C)c3ccccc3[n+]2C)cc1 (stereo not drawn)	inactive: 2.95%
O=C(Cn1c(=O)n(CC(=O)NCc2ccccc2)c2ccccc21)NCc1ccccc1	inactive: 2.51%
Nc1nc(NCCc2ccccc2)nc(NCc2ccccc2)c1[N+](=O)[O-]	inactive: 0.017%
COc1cnc(-c2ccccn2)nc1NC(C)C	inactive: -10.4%
Cc1cc(N/N=C/c2ccccc2[N+](=O)[O-])nc(-n2nc(C)cc2C)n1	inactive: -3.89%
COc1cccc(/C=N/NC(=O)c2c(C)nc3ccc(Cl)cn23)c1O	inactive: -11.2%
Cc1[nH]c(-c2ccc(F)cc2)cc1C(=O)N1CCN(c2ccc(Cl)cc2)CC1	inactive: -0.881%
CCCC(=O)NC(c1ccccc1)c1ccc2cccnc2c1O (stereo not drawn)	inactive: -0.137%
COc1ccc2c(c1)CC(N1CCN(C)CC1)c1cc(OC)ccc1S2 (stereo not drawn)	inactive: 2.8%
COc1cc(C=CC(=O)c2cc(OC)c(OC)c(OC)c2)cc(OC)c1OC	inactive: 5.64%
CCOc1ccccc1C(=O)Nc1ccc2nc(N3CCN(c4ncccn4)CC3)cc(C)c2c1	inactive: 1.06%
COc1ccc(N2CCN(c3nc(NCCc4ccc(OC)c(OC)c4)nc(OC)n3)CC2)cc1	inactive: -15.5%
CC(C)NC1CCC(Nc2ccnc3cc(Cl)ccc23)CC1 (stereo not drawn)	inactive: -0.16%
COc1ccc(CN(C)C(=O)c2cccc(NC(=O)CC3SC(N4CCCCC4)=NC3=O)c2)c(OC)c1 (stereo not drawn)	inactive: -10.8%
CC(C)[C@H](NC(=O)c1ccc(C(C)(C)C)cc1)C(=O)N1CCN(Cc2ccc3c(c2)OCO3)CC1	inactive: -0.972%

Taken from the listing, two compounds:
SMILES	activity change, negative = inhibition
Nc1nc(NCCc2ccccc2)nc(NCc2ccccc2)c1[N+](=O)[O-]	inactive: 0.017%
COc1cnc(-c2ccccn2)nc1NC(C)C	inactive: -10.4%
